Reference: the supplement of paper PMC4604168 (melanoma cell lines)
The other results are listed elsewhere or left out. Repeats are few or missing, and single values can be far off.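 The apoptosis fraction was the count of cleaved-PARP antibody-stained nuclei relative to all DNA-stained nuclei, imaged in 1,536-well plates. Screening doses were set so most cells survived, and baseline and induced cleaved-PARP levels vary greatly across cell lines.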

Tests used:
Assay in all cases: cleaved PARP positive nuclei fraction relative to DMSO control; melanoma cells; higher = more apoptosis
Settings in all cases: library dose: low library concentration; 72 h
501Mel = test system: 501Mel
A101D = test system: A101D
A2058 = test system: A2058
A375 = test system: A375
C32 = test system: C32
CBRC013 = test system: CBRC013 (line from a melanoma biopsy)
CBRC014 = test system: CBRC014 (line from a melanoma biopsy)
CBRC016 = test system: CBRC016 (line from a melanoma biopsy)
CBRC017 = test system: CBRC017 (line from a melanoma biopsy)
CBRC034 = test system: CBRC034 (line from a melanoma biopsy)
COLO792 = test system: COLO792
COLO800 = test system: COLO800
COLO829 = test system: COLO829
G361 = test system: G361
IPC-298 = test system: IPC-298
IST-MEL1 = test system: IST-MEL1
LB2518-MEL = test system: LB2518-MEL
LOXIMVI = test system: LOXIMVI

Row | SMILES | cleaved PARP positive nuclei fraction (501Mel) [%] | cleaved PARP positive nuclei fraction (A101D) [%] | cleaved PARP positive nuclei fraction (A2058) [%] | cleaved PARP positive nuclei fraction (A375) [%] | cleaved PARP positive nuclei fraction (C32) [%] | cleaved PARP positive nuclei fraction (CBRC013) [%] | cleaved PARP positive nuclei fraction (CBRC014) [%] | cleaved PARP positive nuclei fraction (CBRC016) [%] | cleaved PARP positive nuclei fraction (CBRC017) [%] | cleaved PARP positive nuclei fraction (CBRC034) [%] | cleaved PARP positive nuclei fraction (COLO792) [%] | cleaved PARP positive nuclei fraction (COLO800) [%] | cleaved PARP positive nuclei fraction (COLO829) [%] | cleaved PARP positive nuclei fraction (G361) [%] | cleaved PARP positive nuclei fraction (IPC-298) [%] | cleaved PARP positive nuclei fraction (IST-MEL1) [%] | cleaved PARP positive nuclei fraction (LB2518-MEL) [%] | cleaved PARP positive nuclei fraction (LOXIMVI) [%]
1 | Cn1cncc1[C@@](N)(c1ccc(Cl)cc1)c1ccc2c(c1)c(-c1cccc(Cl)c1)cc(=O)n2C [tipifarnib] + N#Cc1c(O)c2c(-c3ccc(-c4ccccc4O)cc3)csc2[nH]c1=O [A769662] (first compound 0.01 µM, partner dose 2 µM) | 57.4 | 66.2 | 48.4 | 158 | 122 | 181 | 86.8 | 115 | 99 | 115 | 56.6 | 153 | 112 | 150 | 84.8 | 88 | 111 | 44.3
2 | O=C(CCCCCCC(=O)Nc1ccccc1)NO [vorinostat] + CCc1ccc(CCOc2ccc(CC3SC(=O)NC3=O)cc2)nc1 [pioglitazone] (first compound 0.08 µM, partner dose 2 µM) | 98.4 | 52.3 | 186 | 38 | 42.4 | 36 | 81.9 | 102 | 48.9 | 80.3 | 108 | 40.8 | 45.8 | 118 | 31.3 | 42.5 | 163 | 212
3 | Cc1cc(N2CCOCC2)cc2[nH]c(-c3c(NC[C@@H](O)c4cccc(Cl)c4)cc[nH]c3=O)nc12 + COc1ccc(COc2ccc(Cc3cnc(N)nc3N)cc2OC)cc1 [GW2580] (first compound 0.2 µM, partner dose 1 µM) | 70.2 | 48.5 | 116 | 108 | 195 | 210 | 110 | 66.5 | 99.9 | 47.9 | 140 | 123 | 105 | 130 | 120 | 170 | 176 | 39.8
4 | Cn1c(Nc2ccc(C(F)(F)F)cc2)nc2cc(Oc3ccnc(-c4ncc(C(F)(F)F)[nH]4)c3)ccc21 + O=C(O)C(=O)Nc1sc2c(c1C(=O)O)CCNC2 [TCS401] (first compound 0.08 µM, partner dose 1.66667 µM) | 108 | 186 | 21.4 | 395 | 67.7 | 461 | 110 | 109 | 194 | 99.8 | 237 | 200 | 89.2 | 234 | 226 | 192 | 295 | 197
5 | CC(C)(C)c1cnc(CSc2cnc(NC(=O)C3CCNCC3)s2)o1 + O=C(O)C(=O)Nc1sc2c(c1C(=O)O)CCNC2 [TCS401] (first compound 0.01 µM, partner dose 1.66667 µM) | 89.8 | 114 | 73 | 553 | 126 | 208 | 106 | 49 | 66.7 | 80.2 | 106 | 156 | 62.8 | 112 | 84.7 | 133 | 92.1 | 63.5
6 | CO[C@@H]1[C@H](N(C)C(=O)c2ccccc2)C[C@H]2O[C@]1(C)n1c3ccccc3c3c4c(c5c6ccccc6n2c5c31)C(=O)NC4 [Midostaurin] + O=C1NC(=O)/C(=C/c2ccc(-c3ccc(F)cc3O)o2)S1 [AS252424] (first compound 0.08 µM, partner dose 1 µM) | 145 | 80.4 | 101 | 104 | 177 | 47.4 | 116 | 113 | 85.6 | 60.8 | 235 | 161 | 112 | 35 | 380 | 47.8 | 268 | 58
7 | Nc1cccc2c1CN(C1CCC(=O)NC1=O)C2=O (centres undefined) [lenalidomide] + CCCCCCCCCCCC1=C(O)C(=O)C=C(O)C1=O [Embelin] (first compound 1 µM, partner dose 1.2 µM) | 63.5 | 42.4 | 76.6 | 140 | 74.9 | 43.5 | 77.9 | 69.6 | 87.8 | 23 | 125 | 196 | 57.1 | 87 | 105 | 41.1 | 79.5 | 113
8 | C[C@@H]1CCN(C(=O)CC#N)C[C@@H]1N(C)c1ncnc2[nH]ccc12 + COc1ccc(COc2ccc(Cc3cnc(N)nc3N)cc2OC)cc1 [GW2580] (first compound 1 µM, partner dose 1 µM) | 68.3 | 170 | 28.5 | 24.5 | 94.2 | 124 | 162 | 70.2 | 123 | 78.6 | 108 | 52.3 | 80.6 | 65.2 | 54.3 | 42.5 | 83.9 | 65.3
9 | COc1cc(Nc2ncc(F)c(Nc3ccc4c(n3)NC(=O)C(C)(C)O4)n2)cc(OC)c1OC [Tamatinib] + Oc1nc(-c2ccc(C(F)(F)F)cc2)nc2c1CSCC2 [XAV939] (first compound 0.4 µM, partner dose 2 µM) | 159 | 197 | 164 | 130 | 384 | 150 | 92.8 | 20.9 | 82.8 | 161 | 159 | 211 | 155 | 75 | 76.3 | 97.6 | 87.8 | 70.7
10 | Cc1cc(N2CCOCC2)cc2[nH]c(-c3c(NC[C@@H](O)c4cccc(Cl)c4)cc[nH]c3=O)nc12 + O=C(Nc1ccccc1)c1cc([N+](=O)[O-])ccc1Cl [GW9662] (first compound 0.2 µM, partner dose 2 µM) | 63.1 | 79 | 17.5 | 151 | 67.8 | 296 | 120 | 113 | 76.4 | 186 | 87.1 | 254 | 90.9 | 191 | 164 | 31.5 | 86.6 | 68.6
11 | O=C(Nc1cccc(Cl)c1)Nc1ncc(CCNc2ncnc3ccsc23)s1 + COc1cc(N2CCC(N3CCN(C)CC3)CC2)ccc1Nc1ncc(Cl)c(Nc2ccccc2S(=O)(=O)C(C)C)n1 [NVP-TAE684] (first compound 0.0008 µM, partner dose 0.08 µM) | 27.1 | 71.4 | 170 | 143 | 99 | 298 | 109 | 53.7 | 62.8 | 186 | 87.3 | 100 | 61.5 | 177 | 28.3 | 152 | 92.3 | 65.4
12 | NC(=O)Nc1cc(-c2cccc(F)c2)sc1C(=O)N[C@H]1CCCNC1 + CCCCCCCCCCCC1=C(O)C(=O)C=C(O)C1=O [Embelin] (first compound 0.02 µM, partner dose 1.2 µM) | 72.1 | 41.2 | 44.8 | 148 | 167 | 67.4 | 116 | 122 | 72.6 | 205 | 76.7 | 217 | 77.1 | 162 | 97.8 | 221 | 55.1 | 29.4
13 | CC(C)(C)c1cnc(CSc2cnc(NC(=O)C3CCNCC3)s2)o1 + COC(=O)c1sccc1S(=O)(=O)Nc1ccc(Nc2ccccc2)cc1OC [GSK0660] (first compound 0.01 µM, partner dose 1 µM) | 49.4 | 158 | 154 | 112 | 160 | 99.4 | 110 | 35.5 | 90.3 | 151 | 55.8 | 80.7 | 107 | 247 | 39 | 43.1 | 45.5 | 69.3
14 | C#Cc1cccc(Nc2ncnc3cc(OCCOC)c(OCCOC)cc23)c1 [erlotinib] + N#Cc1c(O)c2c(-c3ccc(-c4ccccc4O)cc3)csc2[nH]c1=O [A769662] (first compound 0.8 µM, partner dose 2 µM) | 77.6 | 174 | 41.6 | 188 | 107 | 226 | 88 | 40.9 | 76.8 | 81.4 | 265 | 37 | 86.6 | 111 | 82.1 | 70.2 | 93.7 | 68.1
15 | C[C@]1(c2nc3c(C(N)=O)cccc3[nH]2)CCCN1 [Veliparib] + O=C(Nc1ccccc1)c1cc([N+](=O)[O-])ccc1Cl [GW9662] (first compound 1.4 µM, partner dose 2 µM) | 117 | 166 | 99 | 159 | 60.5 | 126 | 216 | 56 | 88.5 | 183 | 80.8 | 91.5 | 82.3 | 77.7 | 62.9 | 177 | 184 | 80.8
16 | COCC[n+]1c2c(n(Cc3cnccn3)c1C)C(=O)c1ccccc1C2=O + c1cc(-c2cnn3cc(-c4ccc(OCCN5CCCCC5)cc4)cnc23)ccn1 [Dorsomorphin] (first compound 0.0004 µM, partner dose 0.4 µM) | 143 | 118 | 818 | 577 | 207 | 121 | 110 | 40.1 | 91.1 | 93.6 | 66.8 | 185 | 154 | 106 | 64.8 | 220 | 225 | 41.7
17 | Cn1cncc1[C@@](N)(c1ccc(Cl)cc1)c1ccc2c(c1)c(-c1cccc(Cl)c1)cc(=O)n2C [tipifarnib] + COC(=O)c1sccc1S(=O)(=O)Nc1ccc(Nc2ccccc2)cc1OC [GSK0660] (first compound 0.01 µM, partner dose 1 µM) | 87.1 | 168 | 71.8 | 113 | 64.8 | 177 | 97.2 | 23.7 | 180 | 185 | 98.4 | 94.6 | 63.6 | 89.2 | 164 | 85.3 | 50.4 | 47.5
18 | OCCn1cc(-c2cnc3nnn(Cc4ccc5ncccc5c4)c3n2)cn1 + CCCCCCCCCCCC1=C(O)C(=O)C=C(O)C1=O [Embelin] (first compound 1 µM, partner dose 1.2 µM) | 36.3 | 152 | 71 | 62.8 | 96.2 | 116 | 82.1 | 55 | 232 | 39.6 | 65.4 | 108 | 77.8 | 97.2 | 76.7 | 36.9 | 152 | 1330

Record cards (already shown). Values in the order: cleaved PARP positive nuclei fraction (501Mel) [%] | cleaved PARP positive nuclei fraction (A101D) [%] | cleaved PARP positive nuclei fraction (A2058) [%] | cleaved PARP positive nuclei fraction (A375) [%] | cleaved PARP positive nuclei fraction (C32) [%] | cleaved PARP positive nuclei fraction (CBRC013) [%] | cleaved PARP positive nuclei fraction (CBRC014) [%] | cleaved PARP positive nuclei fraction (CBRC016) [%] | cleaved PARP positive nuclei fraction (CBRC017) [%] | cleaved PARP positive nuclei fraction (CBRC034) [%] | cleaved PARP positive nuclei fraction (COLO792) [%] | cleaved PARP positive nuclei fraction (COLO800) [%] | cleaved PARP positive nuclei fraction (COLO829) [%] | cleaved PARP positive nuclei fraction (G361) [%] | cleaved PARP positive nuclei fraction (IPC-298) [%] | cleaved PARP positive nuclei fraction (IST-MEL1) [%] | cleaved PARP positive nuclei fraction (LB2518-MEL) [%] | cleaved PARP positive nuclei fraction (LOXIMVI) [%]
C[C@]1(c2nc3c(C(N)=O)cccc3[nH]2)CCCN1 [Veliparib] + O=C(Nc1ccccc1)c1cc([N+](=O)[O-])ccc1Cl [GW9662] (first compound 1.4 µM, partner dose 2 µM) in the list: 117 | 166 | 99 | 159 | 60.5 | 126 | 216 | 56 | 88.5 | 183 | 80.8 | 91.5 | 82.3 | 77.7 | 62.9 | 177 | 184 | 80.8
CC(C)(C)c1cnc(CSc2cnc(NC(=O)C3CCNCC3)s2)o1 + O=C(O)C(=O)Nc1sc2c(c1C(=O)O)CCNC2 [TCS401] (first compound 0.01 µM, partner dose 1.66667 µM) in the list: 89.8 | 114 | 73 | 553 | 126 | 208 | 106 | 49 | 66.7 | 80.2 | 106 | 156 | 62.8 | 112 | 84.7 | 133 | 92.1 | 63.5
